{"sequences": {"note": "Chains of the proteins cited; added tags and fusions are not shown.", "UniProt Q6PDM2": "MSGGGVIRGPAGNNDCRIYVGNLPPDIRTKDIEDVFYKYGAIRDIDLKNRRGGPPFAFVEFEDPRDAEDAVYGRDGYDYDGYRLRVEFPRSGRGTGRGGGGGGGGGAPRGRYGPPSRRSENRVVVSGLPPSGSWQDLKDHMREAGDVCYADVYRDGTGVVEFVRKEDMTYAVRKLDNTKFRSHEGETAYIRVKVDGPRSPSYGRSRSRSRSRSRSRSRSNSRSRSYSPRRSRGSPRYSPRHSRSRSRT"}, "source": "paper PMC6515687", "key": {"[1]": {"molecular_target": "T1, MOV10 (Moloney leukemia virus 10), endogenous, nuclear fraction of P10 mouse testis (mouse (endogenous in P10 testis)) (UniProt P23249)", "T1 sequence": "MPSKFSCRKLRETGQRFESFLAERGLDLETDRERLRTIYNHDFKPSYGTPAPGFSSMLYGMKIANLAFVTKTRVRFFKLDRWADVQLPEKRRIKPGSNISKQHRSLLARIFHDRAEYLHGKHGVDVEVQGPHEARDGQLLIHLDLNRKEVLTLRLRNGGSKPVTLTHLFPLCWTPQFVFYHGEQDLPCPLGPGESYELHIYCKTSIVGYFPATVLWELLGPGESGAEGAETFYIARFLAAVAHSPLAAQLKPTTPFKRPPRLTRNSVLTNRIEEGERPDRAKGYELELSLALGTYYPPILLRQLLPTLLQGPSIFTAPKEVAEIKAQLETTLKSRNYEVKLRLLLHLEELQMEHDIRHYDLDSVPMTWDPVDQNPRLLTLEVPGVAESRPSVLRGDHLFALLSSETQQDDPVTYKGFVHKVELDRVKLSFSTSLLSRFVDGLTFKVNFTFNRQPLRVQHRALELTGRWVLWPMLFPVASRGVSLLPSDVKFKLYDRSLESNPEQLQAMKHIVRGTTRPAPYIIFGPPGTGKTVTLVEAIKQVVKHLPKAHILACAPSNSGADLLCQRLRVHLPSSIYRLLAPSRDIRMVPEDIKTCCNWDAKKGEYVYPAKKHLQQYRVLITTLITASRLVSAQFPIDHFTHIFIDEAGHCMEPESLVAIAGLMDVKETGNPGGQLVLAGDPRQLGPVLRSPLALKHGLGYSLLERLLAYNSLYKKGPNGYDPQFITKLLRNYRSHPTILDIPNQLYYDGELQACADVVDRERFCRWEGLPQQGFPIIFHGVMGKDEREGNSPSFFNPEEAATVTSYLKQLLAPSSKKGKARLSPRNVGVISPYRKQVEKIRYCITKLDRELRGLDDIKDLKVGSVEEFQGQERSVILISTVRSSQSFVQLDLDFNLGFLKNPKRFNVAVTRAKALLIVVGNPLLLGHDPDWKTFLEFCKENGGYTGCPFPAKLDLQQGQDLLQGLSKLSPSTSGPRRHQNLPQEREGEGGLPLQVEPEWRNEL", "experiment": "co-IP; endogenous MOV10 IP from nuclear lysate of P10 mouse testis, western blot of the IP complex (Fig. 7d)"}, "[2]": {"molecular_target": "T2, FLAG-MOV10 (mouse) (UniProt P23249)", "T2 sequence": "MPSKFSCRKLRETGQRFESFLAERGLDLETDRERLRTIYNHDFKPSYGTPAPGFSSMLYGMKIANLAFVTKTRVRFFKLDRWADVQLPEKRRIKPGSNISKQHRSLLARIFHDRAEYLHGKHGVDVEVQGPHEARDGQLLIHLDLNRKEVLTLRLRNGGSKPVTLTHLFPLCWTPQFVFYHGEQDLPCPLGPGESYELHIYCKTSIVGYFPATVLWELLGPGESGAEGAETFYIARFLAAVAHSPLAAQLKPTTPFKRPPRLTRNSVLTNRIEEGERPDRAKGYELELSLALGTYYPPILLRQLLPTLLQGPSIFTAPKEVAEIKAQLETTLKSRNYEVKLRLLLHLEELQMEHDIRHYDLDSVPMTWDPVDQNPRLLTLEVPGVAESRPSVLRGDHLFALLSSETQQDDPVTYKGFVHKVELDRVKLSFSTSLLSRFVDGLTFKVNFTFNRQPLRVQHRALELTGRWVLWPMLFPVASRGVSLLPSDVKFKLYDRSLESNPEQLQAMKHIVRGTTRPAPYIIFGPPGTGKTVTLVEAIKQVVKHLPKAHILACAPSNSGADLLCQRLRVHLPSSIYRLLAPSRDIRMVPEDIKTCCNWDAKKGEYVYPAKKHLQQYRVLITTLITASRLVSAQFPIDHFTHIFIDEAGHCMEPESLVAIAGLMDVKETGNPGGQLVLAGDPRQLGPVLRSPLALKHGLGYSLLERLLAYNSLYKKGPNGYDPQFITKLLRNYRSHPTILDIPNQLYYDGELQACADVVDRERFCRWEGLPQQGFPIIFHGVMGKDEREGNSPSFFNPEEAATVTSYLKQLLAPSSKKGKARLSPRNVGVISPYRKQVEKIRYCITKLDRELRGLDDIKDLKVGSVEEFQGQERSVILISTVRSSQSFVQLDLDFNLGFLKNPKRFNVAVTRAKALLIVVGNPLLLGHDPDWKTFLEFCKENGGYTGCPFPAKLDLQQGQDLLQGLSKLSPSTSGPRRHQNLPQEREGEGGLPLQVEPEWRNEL", "experiment": "co-IP; FLAG-MOV10 co-expressed with HA-SRSF1, HA-DDX5 or HA-DDX17 in HEK293T, 48 h; lysis in 50 mM Tris, 150 mM NaCl, 1 mM EDTA, 0.5% Triton, 10% glycerol; IP with anti-FLAG or anti-HA on protein A beads, 4 °C 3 h; western blot with anti-FLAG and anti-HA"}, "[3]": {"molecular_target": "HA-SRSF1 (mouse) (UniProt Q6PDM2)", "experiment": "co-IP; FLAG-MOV10 co-expressed with HA-SRSF1, HA-DDX5 or HA-DDX17 in HEK293T, 48 h; lysis in 50 mM Tris, 150 mM NaCl, 1 mM EDTA, 0.5% Triton, 10% glycerol; IP with anti-FLAG or anti-HA on protein A beads, 4 °C 3 h; western blot with anti-FLAG and anti-HA"}, "[4]": {"molecular_target": "T1, MOV10 (Moloney leukemia virus 10), endogenous, nuclear fraction of P10 mouse testis (mouse (endogenous in P10 testis))", "experiment": "co-IP; endogenous MOV10 IP from nuclear lysate of P10 mouse testis, western blot of the IP complex (Fig. 7d)", "remark": "listed apart in the source"}}, "note": "Read-outs that look alike come from different tables or passages of the source. Results are given in words; binding and its absence hold for the method and conditions named. In cells and extracts the contact can be indirect. Some entries that bind do so weakly or less than the wild type. For some of these results: Tags and fused reporters may be left off the sequences shown."}
{"molecule": "SRSF1, endogenous, P10 mouse testis (from UniProt Q6PDM2 1-248)", "values": [{"measurement": "binding", "setting": "[1]", "result": "binds"}]}
{"molecule": "HA-SRSF1 (from UniProt Q6PDM2 1-248)", "values": [{"measurement": "binding", "setting": "[2]", "result": "binds"}]}
{"molecule": "FLAG-MOV10 (protein, UniProt P23249 1-1004) MPSKFSCRKLRETGQRFESFLAERGLDLETDRERLRTIYNHDFKPSYGTPAPGFSSMLYGMKIANLAFVTKTRVRFFKLDRWADVQLPEKRRIKPGSNISKQHRSLLARIFHDRAEYLHGKHGVDVEVQGPHEARDGQLLIHLDLNRKEVLTLRLRNGGSKPVTLTHLFPLCWTPQFVFYHGEQDLPCPLGPGESYELHIYCKTSIVGYFPATVLWELLGPGESGAEGAETFYIARFLAAVAHSPLAAQLKPTTPFKRPPRLTRNSVLTNRIEEGERPDRAKGYELELSLALGTYYPPILLRQLLPTLLQGPSIFTAPKEVAEIKAQLETTLKSRNYEVKLRLLLHLEELQMEHDIRHYDLDSVPMTWDPVDQNPRLLTLEVPGVAESRPSVLRGDHLFALLSSETQQDDPVTYKGFVHKVELDRVKLSFSTSLLSRFVDGLTFKVNFTFNRQPLRVQHRALELTGRWVLWPMLFPVASRGVSLLPSDVKFKLYDRSLESNPEQLQAMKHIVRGTTRPAPYIIFGPPGTGKTVTLVEAIKQVVKHLPKAHILACAPSNSGADLLCQRLRVHLPSSIYRLLAPSRDIRMVPEDIKTCCNWDAKKGEYVYPAKKHLQQYRVLITTLITASRLVSAQFPIDHFTHIFIDEAGHCMEPESLVAIAGLMDVKETGNPGGQLVLAGDPRQLGPVLRSPLALKHGLGYSLLERLLAYNSLYKKGPNGYDPQFITKLLRNYRSHPTILDIPNQLYYDGELQACADVVDRERFCRWEGLPQQGFPIIFHGVMGKDEREGNSPSFFNPEEAATVTSYLKQLLAPSSKKGKARLSPRNVGVISPYRKQVEKIRYCITKLDRELRGLDDIKDLKVGSVEEFQGQERSVILISTVRSSQSFVQLDLDFNLGFLKNPKRFNVAVTRAKALLIVVGNPLLLGHDPDWKTFLEFCKENGGYTGCPFPAKLDLQQGQDLLQGLSKLSPSTSGPRRHQNLPQEREGEGGLPLQVEPEWRNEL", "values": [{"measurement": "binding", "setting": "[3]", "result": "binds"}]}
{"molecule": "MOV10L1 (Moloney leukemia virus 10 like-1), endogenous, P10 mouse testis (protein, UniProt Q99MV5 1-1187) MIDDLIYFSNDAVTSTVLLNVGQEVIAVVEENKVSNGLKAIRVEAVSDKWEDDSKNSSKGLSDSSPRVLIGCVTSMLEGAGYISQTTYFSLESVCEGFHPCKGDWVEAEYWIRPGTWSSEAISVKPLRYKRVDKVCISSLCGRNGVIEDSIFFSLDSLKLPEGYIPRRHDIVNAVVVESSQSCYIWRALCMTPVKRDATLGEAPQEPYGALLLKNKGDIEVTRMTSFGTLKEGESKSIVIWIENKGKFSRELVSCRLANWDKAHQFRFETQGRSKSCPGAAAGSVPEGENVNSLNHHREDKTDEIPESRLANSTEISPDGCACKEESREKGNTPEKQEPEPGGLIPPGEKTHIVVTCSAKNPGRCKELLLLCFSDFLIGRHLEVSVVSSEEALIAVREPFSWKKPKSSQTLVSAKTTVVVTTQKRNSRRQLPSFLPQYPIPDRLKKCVEQKIDILTFQPLLAELLNMSNYKEKFSTLLWLEEIHAEIELKEYNMSRVVLKRKGDLLVLEVPGLAESRPSLYAGDKLILKSQEYNGHVIEYIGYVMEIHEEDVTLKLNPGFEQMYNFEPMDVEFTYNRTTSRRCHYALEQVIHLGVKVLFPEEIILQSPQVTGNWSLAQDTKNDGQSITNITRNDGQSMTKVTRNDSQSITNIIRNDGQSITNVTRNDGQPITKVTRNNSQSITNITRNDGQPITKNKKTVKDQTKHTTEERHVGTTDQPEKASSTAETMDEIQIPKARDKEFFNPVLNENQKLAVRRILSGDCRPLPYILFGPPGTGKTVTIIEAVLQVHYALPDSRILVCAPSNSAADLVCLRLHESKVPKPAAMVRVNATCRFEETIIDAIKPYCRDGEDIWRASRFRIIITTCSSAGLFYQIGVRVGYFTHVFVDEAGQASEPECLIPLGLISDINGQIVLAGDPMQLGPVIKSRLAMAYGLNVSMLERLMSRPAYLRDENAFGACGAYNPLLVTKLVKNYRSHSALLALPSRLFYHRELEVCADPKVVTSLLGWEKLPRKGFPLIFHGVRGNEAREGRSPSWFSPAEAVQVMRYCCLLARSVSSQVSSKDIGVITPYRKQVEKIKILLRNVDLTDIKVGSVEEFQGQEYLVIVISTVRSNEDRFEDDRYFLGFLSNSKRFNVAITRPKALLIILGNPHVLVRDPCFGALLEYSVSNGVYTGCDLPPELQALQK", "values": [{"measurement": "binding", "setting": "[4]", "result": "no binding"}]}
